Reference: the supplement of paper PMC12823440, “Inhibitors supercharge kinase turnover through native proteolytic circuits” (Nature, 2025)
Counter-ions that a name gives are not always drawn. The list shows a part of the results. Hit calls seldom repeat between salt and free forms of one compound.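 Kinases were expressed as nanoluciferase fusions in K562 cells and luminescence was read every 4 h between 2 and 18 h as percent of control, DMSO set to 100% and a positive control to 0%. A time point counts as decreased when the signal drops significantly (2 sigma). The hit call is the authors' own, does not follow from the count of time points alone, and its rule is not shown.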

Amino acid sequences for entries named in this document (tags omitted). A change or cut given only in a name is not applied to a line headed by its entry.
UniProt P06241, whole entry, looked up: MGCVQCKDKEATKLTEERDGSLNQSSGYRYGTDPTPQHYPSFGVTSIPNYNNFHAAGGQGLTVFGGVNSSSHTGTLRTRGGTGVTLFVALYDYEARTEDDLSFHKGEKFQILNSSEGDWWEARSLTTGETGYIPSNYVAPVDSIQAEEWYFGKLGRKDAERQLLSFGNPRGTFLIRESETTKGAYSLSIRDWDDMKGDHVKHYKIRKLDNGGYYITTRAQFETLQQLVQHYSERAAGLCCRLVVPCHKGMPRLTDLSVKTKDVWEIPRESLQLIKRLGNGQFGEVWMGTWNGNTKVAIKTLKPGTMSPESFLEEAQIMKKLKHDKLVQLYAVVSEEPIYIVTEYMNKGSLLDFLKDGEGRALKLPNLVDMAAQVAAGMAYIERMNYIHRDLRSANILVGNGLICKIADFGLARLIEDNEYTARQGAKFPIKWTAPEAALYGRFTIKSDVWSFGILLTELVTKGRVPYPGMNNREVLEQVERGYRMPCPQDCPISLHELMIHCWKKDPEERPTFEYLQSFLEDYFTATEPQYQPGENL
UniProt P14616: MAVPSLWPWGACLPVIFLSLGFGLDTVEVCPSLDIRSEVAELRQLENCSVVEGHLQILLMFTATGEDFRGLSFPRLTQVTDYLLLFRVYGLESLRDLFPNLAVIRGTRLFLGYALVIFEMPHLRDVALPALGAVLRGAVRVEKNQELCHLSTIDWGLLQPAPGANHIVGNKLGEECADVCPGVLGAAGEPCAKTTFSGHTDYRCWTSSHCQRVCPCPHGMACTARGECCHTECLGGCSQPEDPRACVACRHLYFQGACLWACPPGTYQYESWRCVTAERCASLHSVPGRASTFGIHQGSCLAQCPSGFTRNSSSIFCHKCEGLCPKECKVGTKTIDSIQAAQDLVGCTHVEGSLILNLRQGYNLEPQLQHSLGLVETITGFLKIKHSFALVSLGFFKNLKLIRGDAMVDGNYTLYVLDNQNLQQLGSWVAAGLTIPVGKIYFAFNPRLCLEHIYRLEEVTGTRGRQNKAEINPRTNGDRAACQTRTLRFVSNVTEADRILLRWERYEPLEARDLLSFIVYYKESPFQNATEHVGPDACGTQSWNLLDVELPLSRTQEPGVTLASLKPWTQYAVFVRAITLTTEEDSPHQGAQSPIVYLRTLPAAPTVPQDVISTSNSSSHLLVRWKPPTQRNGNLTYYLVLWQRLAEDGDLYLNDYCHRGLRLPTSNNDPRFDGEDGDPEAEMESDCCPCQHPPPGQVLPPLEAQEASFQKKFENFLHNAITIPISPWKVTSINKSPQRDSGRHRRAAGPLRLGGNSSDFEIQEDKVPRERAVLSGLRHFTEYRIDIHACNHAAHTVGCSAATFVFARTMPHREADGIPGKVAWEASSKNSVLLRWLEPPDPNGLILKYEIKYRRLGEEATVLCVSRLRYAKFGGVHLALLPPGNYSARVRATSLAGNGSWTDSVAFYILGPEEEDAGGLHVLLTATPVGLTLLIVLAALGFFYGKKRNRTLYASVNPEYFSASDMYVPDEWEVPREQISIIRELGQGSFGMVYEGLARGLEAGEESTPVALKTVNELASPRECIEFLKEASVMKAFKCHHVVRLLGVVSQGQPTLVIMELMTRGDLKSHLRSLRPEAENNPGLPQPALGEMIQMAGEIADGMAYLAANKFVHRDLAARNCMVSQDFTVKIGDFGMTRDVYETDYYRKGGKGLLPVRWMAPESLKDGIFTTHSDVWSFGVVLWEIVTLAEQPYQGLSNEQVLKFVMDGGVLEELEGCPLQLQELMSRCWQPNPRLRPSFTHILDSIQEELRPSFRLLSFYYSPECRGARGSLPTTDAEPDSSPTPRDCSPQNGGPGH
UniProt Q9Y616: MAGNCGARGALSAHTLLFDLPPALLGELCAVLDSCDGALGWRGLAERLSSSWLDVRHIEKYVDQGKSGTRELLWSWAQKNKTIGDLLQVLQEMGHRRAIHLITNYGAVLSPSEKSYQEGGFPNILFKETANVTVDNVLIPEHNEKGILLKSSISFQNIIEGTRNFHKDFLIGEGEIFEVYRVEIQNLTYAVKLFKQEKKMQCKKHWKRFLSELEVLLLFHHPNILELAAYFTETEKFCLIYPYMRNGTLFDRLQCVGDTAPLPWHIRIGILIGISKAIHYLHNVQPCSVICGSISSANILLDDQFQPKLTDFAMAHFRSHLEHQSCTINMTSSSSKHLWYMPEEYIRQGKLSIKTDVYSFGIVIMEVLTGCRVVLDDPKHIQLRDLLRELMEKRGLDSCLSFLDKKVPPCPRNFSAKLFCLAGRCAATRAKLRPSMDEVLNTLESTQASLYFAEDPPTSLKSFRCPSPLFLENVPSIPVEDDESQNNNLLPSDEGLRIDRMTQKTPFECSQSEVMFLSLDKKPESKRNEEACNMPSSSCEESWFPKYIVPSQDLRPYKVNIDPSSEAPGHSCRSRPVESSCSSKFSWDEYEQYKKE
UniProt P06239: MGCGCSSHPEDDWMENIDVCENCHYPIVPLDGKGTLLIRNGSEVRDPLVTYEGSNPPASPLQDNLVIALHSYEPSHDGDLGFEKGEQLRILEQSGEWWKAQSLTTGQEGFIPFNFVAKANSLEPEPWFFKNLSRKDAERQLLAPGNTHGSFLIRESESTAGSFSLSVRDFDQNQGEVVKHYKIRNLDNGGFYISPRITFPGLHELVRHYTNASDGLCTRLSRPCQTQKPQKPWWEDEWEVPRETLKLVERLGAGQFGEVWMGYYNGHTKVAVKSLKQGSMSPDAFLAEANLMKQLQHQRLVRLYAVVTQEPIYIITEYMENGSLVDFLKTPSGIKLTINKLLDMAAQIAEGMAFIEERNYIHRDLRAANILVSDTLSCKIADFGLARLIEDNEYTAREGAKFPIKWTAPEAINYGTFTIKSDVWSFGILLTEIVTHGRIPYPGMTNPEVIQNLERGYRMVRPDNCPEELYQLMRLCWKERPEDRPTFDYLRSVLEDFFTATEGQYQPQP
UniProt Q8IWU2: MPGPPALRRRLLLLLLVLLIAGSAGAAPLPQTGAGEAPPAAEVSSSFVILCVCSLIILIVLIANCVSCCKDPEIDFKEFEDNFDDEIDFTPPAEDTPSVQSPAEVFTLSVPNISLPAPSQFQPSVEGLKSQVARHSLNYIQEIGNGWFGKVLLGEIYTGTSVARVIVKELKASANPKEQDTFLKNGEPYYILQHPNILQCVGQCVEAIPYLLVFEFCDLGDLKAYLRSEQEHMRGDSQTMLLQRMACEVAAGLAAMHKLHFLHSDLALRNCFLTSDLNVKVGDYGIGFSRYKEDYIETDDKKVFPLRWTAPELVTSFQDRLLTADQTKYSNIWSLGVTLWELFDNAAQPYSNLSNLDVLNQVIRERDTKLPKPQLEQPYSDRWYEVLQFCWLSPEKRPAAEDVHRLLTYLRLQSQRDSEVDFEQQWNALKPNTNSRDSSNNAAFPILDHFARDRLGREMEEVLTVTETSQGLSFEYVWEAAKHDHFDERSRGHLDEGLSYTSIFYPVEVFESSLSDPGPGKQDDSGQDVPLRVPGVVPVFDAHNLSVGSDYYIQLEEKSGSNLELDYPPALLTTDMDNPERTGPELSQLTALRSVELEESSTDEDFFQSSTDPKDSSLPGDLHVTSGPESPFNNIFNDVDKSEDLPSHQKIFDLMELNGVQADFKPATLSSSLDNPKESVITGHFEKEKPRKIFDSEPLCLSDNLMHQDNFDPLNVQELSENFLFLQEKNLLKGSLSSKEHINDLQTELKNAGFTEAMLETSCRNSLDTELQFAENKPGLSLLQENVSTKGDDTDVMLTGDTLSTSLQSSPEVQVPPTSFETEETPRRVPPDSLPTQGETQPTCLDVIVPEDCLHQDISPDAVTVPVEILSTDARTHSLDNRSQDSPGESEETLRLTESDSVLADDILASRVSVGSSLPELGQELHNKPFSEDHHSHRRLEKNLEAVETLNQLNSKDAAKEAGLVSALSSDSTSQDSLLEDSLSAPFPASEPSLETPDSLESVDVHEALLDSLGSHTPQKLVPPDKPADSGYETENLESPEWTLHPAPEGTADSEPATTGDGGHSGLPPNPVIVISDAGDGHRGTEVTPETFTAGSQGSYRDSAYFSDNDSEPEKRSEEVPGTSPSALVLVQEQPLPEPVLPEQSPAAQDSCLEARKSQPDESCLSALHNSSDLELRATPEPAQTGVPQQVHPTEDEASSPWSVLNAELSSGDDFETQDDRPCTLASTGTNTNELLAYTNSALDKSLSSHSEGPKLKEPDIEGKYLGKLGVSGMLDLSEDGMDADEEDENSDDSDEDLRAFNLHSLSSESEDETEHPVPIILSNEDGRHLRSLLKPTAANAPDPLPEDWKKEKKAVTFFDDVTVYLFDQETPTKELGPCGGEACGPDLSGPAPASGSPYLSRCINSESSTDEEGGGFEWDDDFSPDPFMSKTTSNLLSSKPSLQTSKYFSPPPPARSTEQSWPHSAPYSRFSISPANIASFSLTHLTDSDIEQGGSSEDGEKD
UniProt Q12851: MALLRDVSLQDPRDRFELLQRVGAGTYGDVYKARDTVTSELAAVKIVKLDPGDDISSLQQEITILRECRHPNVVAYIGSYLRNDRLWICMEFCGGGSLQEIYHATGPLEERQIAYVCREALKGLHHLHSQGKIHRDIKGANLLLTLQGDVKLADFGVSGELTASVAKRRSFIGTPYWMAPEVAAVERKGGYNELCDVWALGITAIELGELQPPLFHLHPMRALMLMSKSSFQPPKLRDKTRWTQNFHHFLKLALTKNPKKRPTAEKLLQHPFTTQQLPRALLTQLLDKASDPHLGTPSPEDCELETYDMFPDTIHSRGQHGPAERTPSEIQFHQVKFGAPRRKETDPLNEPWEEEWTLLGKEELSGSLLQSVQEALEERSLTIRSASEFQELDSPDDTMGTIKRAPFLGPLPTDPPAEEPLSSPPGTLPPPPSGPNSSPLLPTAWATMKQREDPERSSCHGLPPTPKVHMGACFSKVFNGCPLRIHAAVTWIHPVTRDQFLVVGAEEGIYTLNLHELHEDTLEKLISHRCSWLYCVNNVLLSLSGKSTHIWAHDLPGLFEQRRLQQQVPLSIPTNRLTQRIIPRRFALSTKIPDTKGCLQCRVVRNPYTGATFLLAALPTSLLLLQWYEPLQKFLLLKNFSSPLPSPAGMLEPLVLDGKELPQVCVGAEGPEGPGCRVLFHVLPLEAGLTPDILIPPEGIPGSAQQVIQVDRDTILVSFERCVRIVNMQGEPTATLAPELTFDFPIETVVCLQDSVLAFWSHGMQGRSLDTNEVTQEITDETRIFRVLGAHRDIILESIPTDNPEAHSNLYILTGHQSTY
UniProt P28482, whole entry: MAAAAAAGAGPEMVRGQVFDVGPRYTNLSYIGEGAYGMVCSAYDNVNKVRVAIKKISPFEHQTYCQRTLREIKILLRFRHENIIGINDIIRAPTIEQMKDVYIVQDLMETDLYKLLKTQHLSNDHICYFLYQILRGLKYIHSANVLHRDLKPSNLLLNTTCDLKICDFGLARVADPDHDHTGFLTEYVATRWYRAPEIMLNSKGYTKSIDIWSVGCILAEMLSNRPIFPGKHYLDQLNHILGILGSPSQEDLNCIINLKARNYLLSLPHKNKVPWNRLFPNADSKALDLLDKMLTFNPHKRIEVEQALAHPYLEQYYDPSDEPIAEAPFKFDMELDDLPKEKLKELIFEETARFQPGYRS
UniProt P49137, whole entry, looked up: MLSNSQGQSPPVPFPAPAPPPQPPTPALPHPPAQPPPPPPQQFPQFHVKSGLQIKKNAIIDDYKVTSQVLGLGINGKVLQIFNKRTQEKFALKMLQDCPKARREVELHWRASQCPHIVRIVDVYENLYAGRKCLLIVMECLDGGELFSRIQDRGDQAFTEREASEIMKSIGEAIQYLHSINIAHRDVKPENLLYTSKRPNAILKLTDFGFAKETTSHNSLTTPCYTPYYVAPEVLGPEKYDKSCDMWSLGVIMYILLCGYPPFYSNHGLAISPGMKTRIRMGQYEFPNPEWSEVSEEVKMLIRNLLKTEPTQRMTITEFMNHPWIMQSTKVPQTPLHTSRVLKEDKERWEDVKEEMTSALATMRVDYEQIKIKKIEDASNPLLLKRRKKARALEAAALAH
UniProt Q9BUB5: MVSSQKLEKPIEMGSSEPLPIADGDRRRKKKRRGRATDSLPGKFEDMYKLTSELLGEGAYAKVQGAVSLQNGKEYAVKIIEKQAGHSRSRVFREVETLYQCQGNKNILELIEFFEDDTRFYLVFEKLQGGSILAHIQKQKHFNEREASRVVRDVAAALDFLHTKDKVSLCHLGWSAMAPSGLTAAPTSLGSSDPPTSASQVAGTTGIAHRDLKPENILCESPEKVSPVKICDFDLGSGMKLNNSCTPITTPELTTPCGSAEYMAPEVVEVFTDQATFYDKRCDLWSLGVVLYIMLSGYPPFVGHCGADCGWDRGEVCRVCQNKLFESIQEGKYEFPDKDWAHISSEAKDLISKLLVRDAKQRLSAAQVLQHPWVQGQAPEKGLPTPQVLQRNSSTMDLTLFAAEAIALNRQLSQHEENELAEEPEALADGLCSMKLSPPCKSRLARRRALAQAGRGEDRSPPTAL

How the values were obtained:
Assay in all cases: number of time points (of 5) at which kinase-Nluc abundance scored as decreased, DMSO-normalised (count); higher = more persistent destabilization
Details in all cases: K562; 2-18 h
[1] = biological target: FLT3 (UniProt P36888)
[2] = biological target: FYN (UniProt P06241)
[3] = biological target: GSK3A (UniProt P49840)
[4] = biological target: HER2 (UniProt P04626)
[5] = biological target: INSRR (UniProt P14616)
[6] = biological target: IRAK3 (UniProt Q9Y616)
[7] = biological target: JAK1 (UniProt P23458)
[8] = biological target: LCK (UniProt P06239)
[9] = biological target: LIMK1 (UniProt P53667)
[10] = biological target: LIMK2 (UniProt P53671)
[11] = biological target: LMTK2 (UniProt Q8IWU2)
[12] = biological target: LYN (UniProt P07948)
[13] = biological target: MAP2K1 (UniProt Q02750)
[14] = biological target: MAP2K2 (UniProt P36507)
[15] = biological target: MAP4K2 (UniProt Q12851)
[16] = biological target: MAPK1 (UniProt P28482)
[17] = biological target: MAPK4 (UniProt P31152)
[18] = biological target: MAPKAPK2 (UniProt P49137)
[19] = biological target: MKNK1 (UniProt Q9BUB5)
[20] = biological target: NTRK2 (UniProt Q16620)

Row | Compound | number of time points [1] | number of time points [2] | number of time points [3] | number of time points [4] | number of time points [5] | number of time points [6] | number of time points [7] | number of time points [8] | number of time points [9] | number of time points [10] | number of time points [11] | number of time points [12] | number of time points [13] | number of time points [14] | number of time points [15] | number of time points [16] | number of time points [17] | number of time points [18] | number of time points [19] | number of time points [20]
1 | O=C(NCc1cccc(O)c1)Nc1nc(-c2ccncc2)cs1 (10 µM) | 0 | 0 | 0 | 0 | 0 | 0 | 0 | 0 | 0 | 0 | 0 | 0 | 0 | 0 | 0 | 0 | 0 | 0 | 0 | 0
2 | Cc1cc(Nc2ncnc3ccc(-c4ccc(CNCCS(C)(=O)=O)o4)cc23)ccc1Oc1ccn2ncnc2c1 [ARRY-380 (analog )] (2.5 µM) | 0 | 0 | 0 | 0 | 0 | 0 | 0 | 0 | 0 | 0 | 0 | 0 | 0 | 0 | 0 | 0 | 0 | 0 | 0 | 0
3 | CNC(=O)c1cc2c(Oc3ccc(NC(=S)NC(=O)Cc4ccccc4)cc3F)ccnc2cc1OC [TAS-115 mesylate] (10 µM) | 3 | 0 | 0 | 0 | 3 | 3 | 3 | 0 | 0 | 0 | 2 | 0 | 0 | 0 | 0 | 2 | 0 | 2 | 3 | 0
4 | CN(c1ccc(NC(=O)Nc2ccc(OC(F)(F)F)cc2)cc1)c1ccnc(Nc2cccc(S(N)(=O)=O)c2)n1 (2.5 µM) | 2 | 3 | 0 | 2 | 4 | 4 | 2 | 0 | 4 | 3 | 3 | 0 | 0 | 0 | 0 | 0 | 1 | 0 | 3 | 1
5 | O=C(NC1CCOCC1)c1ccc(-c2cc(-c3c[nH]nc3-c3ccccn3)ccn2)cc1 (10 µM) | 0 | 0 | 0 | 0 | 0 | 0 | 0 | 0 | 0 | 0 | 0 | 0 | 0 | 0 | 0 | 0 | 0 | 0 | 0 | 0
6 | CC(C)=CC(=O)O[C@H]1Cc2cc3ccc(=O)oc3cc2OC1(C)C [Decursin] (10 µM) | 0 | 0 | 0 | 0 | 0 | 0 | 0 | 0 | 0 | 0 | 0 | 0 | 0 | 0 | 0 | 0 | 0 | 0 | 0 | 0
7 | Cc1ccn2c(C(=O)C(=O)c3ccccc3)c(-c3ccccc3)nc2c1 (10 µM) | 0 | 0 | 0 | 0 | 0 | 0 | 0 | 0 | 0 | 0 | 0 | 0 | 0 | 0 | 0 | 0 | 0 | 0 | 0 | 0
8 | COc1cc(N2CCOCC2)ccc1Nc1ncc(Cl)c(Nc2ccccc2NS(C)(=O)=O)n1 (2.5 µM) | 0 | 0 | 0 | 0 | 0 | 0 | 0 | 0 | 0 | 0 | 0 | 0 | 0 | 0 | 0 | 0 | 0 | 0 | 0 | 0
9 | Cc1cccc(-c2[nH]c(C(C)(C)C)nc2-c2ccc3nccnc3c2)n1 (10 µM) | 0 | 0 | 0 | 0 | 0 | 0 | 0 | 0 | 0 | 0 | 0 | 0 | 0 | 0 | 0 | 0 | 0 | 0 | 0 | 0
10 | CNc1nc(Nc2ccc(C(=O)N3CCOCC3)cc2OC)ncc1Cl (2.5 µM) | 0 | 0 | 0 | 0 | 0 | 0 | 0 | 0 | 0 | 0 | 0 | 0 | 0 | 0 | 0 | 0 | 0 | 0 | 0 | 0
11 | CCCCCCCCCCCCCCCCOP(=O)([O-])OCC[N+](C)(C)C [Miltefosine] (10 µM) | 0 | 0 | 0 | 0 | 0 | 0 | 0 | 0 | 0 | 0 | 0 | 0 | 0 | 0 | 0 | 0 | 0 | 0 | 0 | 0
12 | CCCNC(=O)Nc1ccc(Oc2ncnc3cc(OC)c(OC)cc23)cc1Cl (2.5 µM) | 0 | 0 | 0 | 0 | 0 | 0 | 0 | 0 | 0 | 0 | 0 | 0 | 0 | 0 | 0 | 0 | 0 | 0 | 0 | 0
13 | CC(C)c1cccc(C(C)C)c1N1C(=O)c2ccc(N)cc2C1=O (2.5 µM) | 0 | 0 | 0 | 0 | 0 | 0 | 0 | 0 | 0 | 0 | 0 | 0 | 0 | 0 | 0 | 0 | 0 | 0 | 0 | 0
14 | C[C@@H]1COCCN1c1nc(-c2cnc(N)cc2C(F)F)nc(N2[C@H](C)COC[C@@H]2C)n1 (2.5 µM) | 0 | 0 | 0 | 0 | 0 | 2 | 0 | 0 | 0 | 4 | 0 | 0 | 0 | 0 | 0 | 0 | 0 | 0 | 0 | 1
15 | C=C[C@@](C)(/C=C/c1ccc(O)cc1)CCC=C(C)C [Bakuchiol] (10 µM) | 0 | 0 | 0 | 0 | 0 | 0 | 0 | 0 | 0 | 0 | 0 | 0 | 0 | 0 | 0 | 0 | 0 | 0 | 0 | 0
16 | Cc1ccc(Oc2nc3cc(-c4ccc(-c5ccccc5)cc4)c(Cl)cc3[nH]2)cc1C(=O)O (10 µM) | 0 | 0 | 0 | 0 | 0 | 0 | 0 | 0 | 0 | 0 | 0 | 0 | 0 | 0 | 0 | 0 | 0 | 0 | 0 | 0
17 | NC(=O)c1cnc2[nH]ccc2c1N[C@@H]1[C@@H]2CC3C[C@H]1C[C@@](O)(C3)C2 [Peficitinib] (10 µM) | 2 | 4 | 0 | 2 | 0 | 3 | 3 | 0 | 1 | 0 | 3 | 0 | 0 | 0 | 0 | 0 | 0 | 0 | 3 | 0
18 | CCOC(=O)N1C/C(=C/c2ccccc2F)C(=O)/C(=C\c2ccccc2F)C1 (2.5 µM) | 0 | 0 | 0 | 0 | 0 | 0 | 0 | 0 | 0 | 0 | 0 | 0 | 0 | 0 | 0 | 0 | 0 | 0 | 0 | 0
19 | CC(C)(C[C@H](N)C(=O)O)C(F)F [NV-5138 (hydrochloride)] (10 µM) | 0 | 0 | 0 | 0 | 0 | 0 | 0 | 0 | 0 | 0 | 0 | 0 | 0 | 0 | 0 | 0 | 0 | 0 | 0 | 0
20 | COc1ccc(N=Nc2c(N)n[nH]c2N)cc1 (10 µM) | 0 | 0 | 0 | 0 | 0 | 0 | 0 | 0 | 0 | 0 | 0 | 0 | 0 | 0 | 0 | 0 | 0 | 0 | 0 | 0
21 | CNc1cc(Nc2cccn(-c3ccccn3)c2=O)nn2c(C(=O)N[C@@H]3C[C@@H]3F)cnc12 (2.5 µM) | 0 | 0 | 0 | 0 | 0 | 0 | 0 | 0 | 0 | 0 | 0 | 0 | 0 | 0 | 0 | 0 | 0 | 0 | 0 | 0
22 | C[C@@H]1CN(c2cc(-c3n[nH]c4ccc(OC5(C)CC5)cc34)ncn2)C[C@H](C)O1 (10 µM) | 0 | 0 | 0 | 0 | 0 | 0 | 0 | 0 | 0 | 1 | 0 | 0 | 0 | 0 | 0 | 0 | 0 | 0 | 0 | 0
23 | CN1C(=O)[C@@H](NC(=O)c2n[nH]c(Cc3ccccc3)n2)COc2ccccc21 (10 µM) | 0 | 0 | 0 | 0 | 0 | 0 | 0 | 0 | 0 | 0 | 0 | 0 | 0 | 0 | 0 | 0 | 0 | 0 | 0 | 0
24 | Cn1cc(C2=C(c3cn(CCCSC(=N)N)c4ccccc34)C(=O)NC2=O)c2ccccc21 [Ro 31-8220 (mesylate)] (2.5 µM) | 4 | 1 | 0 | 2 | 0 | 0 | 3 | 0 | 0 | 0 | 3 | 0 | 0 | 0 | 0 | 0 | 0 | 0 | 0 | 0

Complete entries from above. Values in the order: number of time points [1] | number of time points [2] | number of time points [3] | number of time points [4] | number of time points [5] | number of time points [6] | number of time points [7] | number of time points [8] | number of time points [9] | number of time points [10] | number of time points [11] | number of time points [12] | number of time points [13] | number of time points [14] | number of time points [15] | number of time points [16] | number of time points [17] | number of time points [18] | number of time points [19] | number of time points [20]
`O=C(NCc1cccc(O)c1)Nc1nc(-c2ccncc2)cs1` (10 µM) as listed: 0 | 0 | 0 | 0 | 0 | 0 | 0 | 0 | 0 | 0 | 0 | 0 | 0 | 0 | 0 | 0 | 0 | 0 | 0 | 0
`Cn1cc(C2=C(c3cn(CCCSC(=N)N)c4ccccc34)C(=O)NC2=O)c2ccccc21` [Ro 31-8220 (mesylate)] (2.5 µM) as listed: 4 | 1 | 0 | 2 | 0 | 0 | 3 | 0 | 0 | 0 | 3 | 0 | 0 | 0 | 0 | 0 | 0 | 0 | 0 | 0
